## Microarray screen: hit calls

Targets (5′ to 3′):
TPP: TPP riboswitch RNA three-way junction, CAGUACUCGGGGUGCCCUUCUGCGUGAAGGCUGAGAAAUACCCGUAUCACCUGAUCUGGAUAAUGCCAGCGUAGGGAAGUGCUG. About 160 hits among about 24,000 compounds.
SAM-II: SAM-II riboswitch RNA pseudoknot, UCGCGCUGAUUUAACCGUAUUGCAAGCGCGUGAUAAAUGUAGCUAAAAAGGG. About 200 hits among about 21,000 compounds.
PreQ1: PreQ1 riboswitch RNA pseudoknot, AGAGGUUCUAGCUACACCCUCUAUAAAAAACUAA. From B. subtilis. About 170 hits among about 24,000 compounds.

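Each compound is printed as two spots on a slide made to bind it covalently, so it has no test concentration; the read-out is fluorescence of the bound, labelled oligonucleotide. For the PreQ1, TPP and SAM-II riboswitches the laboratory earlier reported (doi:10.1038/s41467-019-09493-3) 1 µM RNA, 2 h, and a rule that included a mean Z-score above 3 (spot signal-to-noise against the whole library), a score well above that on a control array, and duplicate spots agreeing (coefficient of variation under 100). The data file gives only the calls; its cut-offs may differ, and compounds hitting several targets are kept. The calls come from the array alone, and fixing a compound to the slide can hide its binding.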 A compound is marked active if it was called a hit and inactive if it was screened but was not. This is an unselected part of the compounds tested. A target missing from an entry has no call listed here.

Calls for C=CCN1C(=O)C2(C(C#N)=C(N)OC(C)=C2C(=O)OCc2ccccc2)c2ccccc21 (centres unmarked) are TPP: inactive; SAM-II: inactive; PreQ1: inactive.
Calls for Cc1cccc2nc(-c3cccs3)c(NC3CCCCC3)n12 are TPP: inactive; SAM-II: inactive; PreQ1: inactive.
Calls for CCN(CC)c1ccc(Nc2c(-c3ccc(C)c(C)c3)c(=O)c2=O)c(C)c1 are TPP: inactive; PreQ1: inactive.
Calls for CCOCc1nc2c(c(N(C)Cc3ccc(CC)cn3)n1)CCNCC2 are TPP: inactive; SAM-II: inactive; PreQ1: inactive.
Calls for O=S1(=O)C[C@H](NCc2ccccc2Cl)[C@@H](S(=O)(=O)c2ccc(F)cc2)C1 are TPP: inactive; PreQ1: inactive.
Calls for Cc1cc(NC(=O)c2ccccc2)c(Cl)cc1N are TPP: inactive; SAM-II: inactive; PreQ1: inactive.
Calls for COc1ccc(NC(=O)NCCc2nnc(N)s2)cc1NS(C)(=O)=O are TPP: inactive; SAM-II: inactive; PreQ1: inactive.
Calls for CCCCNc1cc(C)nc2nc(-c3cccc(C)c3)nn12 are TPP: inactive; PreQ1: inactive.
Calls for c1ccc(CCNc2cc(-c3ccccc3)nc3nncn23)cc1 are TPP: inactive; PreQ1: inactive.
Calls for C=CCNCc1nc(-c2ccc(OC)c(OC)c2)no1 are TPP: inactive; SAM-II: inactive; PreQ1: inactive.
Calls for O=C(O)c1ccc(Nc2c(-c3ccccc3O)nc3cnccn23)cc1 are TPP: inactive; PreQ1: inactive.
Calls for Cc1ccccc1NC(=O)c1c(N)sc2c1CCC(C)C2 (centres unmarked) are TPP: inactive; SAM-II: inactive; PreQ1: inactive.
Calls for OC1CN(Cc2cnn3cccnc23)CCN(c2ccncc2)C1 (centres unmarked) are TPP: inactive; SAM-II: inactive; PreQ1: inactive.
Calls for COc1ccc(CNc2nccs2)cc1OC are TPP: inactive; SAM-II: inactive; PreQ1: inactive.
Calls for O=C1CCC(=O)N1CNc1ccc(Cl)c(Cl)c1 are TPP: inactive; SAM-II: inactive; PreQ1: inactive.
Calls for CN1c2ccccc2C2=C(C(c3ccc(F)c(Br)c3)C(C#N)=C(N)O2)S1(=O)=O (centres unmarked) are TPP: inactive; PreQ1: inactive.
Calls for CCC(O)Cn1ncnc1-c1c(C)noc1C (centres unmarked) are TPP: inactive; SAM-II: inactive; PreQ1: inactive.
Calls for CCOC(=O)N1CCC(Nc2c(N3CCN(c4ccc(OC)cc4)CC3)c(=O)c2=O)CC1 are TPP: inactive; PreQ1: inactive.
Calls for COc1ccc(C2CNC(=O)C2)cc1OC1CCCC1 (centres unmarked) are TPP: inactive; SAM-II: inactive; PreQ1: inactive.
Calls for CCCOC(=O)c1sc2nc3c(cc2c1N)CN(C)CC3 are TPP: inactive; SAM-II: inactive; PreQ1: inactive.
Calls for CN(C)c1nc(Cc2ccc(NC(=O)c3ccc4ccccc4c3)cc2)nc(Cl)c1CC(=O)O are TPP: inactive; SAM-II: inactive; PreQ1: inactive.
Calls for CCOP(=O)(OCC)/C(C#N)=C/c1ccc(Br)cc1 are TPP: inactive; SAM-II: inactive; PreQ1: inactive.
Calls for CCn1nnc2c(N3CCOCC3)nc(-c3ccc(NC(=O)Nc4ccc(C(=O)N5CCN(C)CC5)cc4)cc3)nc21 are TPP: inactive; SAM-II: inactive; PreQ1: inactive.
Calls for Nc1nc(N)nc(-c2ccccc2-c2nc(N)nc(N)n2)n1 are TPP: inactive; SAM-II: inactive; PreQ1: inactive.
Calls for CCOC(=O)Cn1nc2oc(=O)c(CCN3CCN(c4ccccc4OC)CC3)c(C)c2c1C are TPP: inactive; SAM-II: inactive; PreQ1: inactive.
Calls for Cc1ccc(OCCCCn2c(CCCO)nc3ccccc32)cc1 are TPP: inactive; SAM-II: inactive; PreQ1: inactive.
Calls for COCc1nn2c(nnc3c(=O)n(CCCO)ccc32)c1-c1ccc(F)cc1 are TPP: inactive; SAM-II: inactive; PreQ1: inactive.
Calls for Cc1ccc(Nc2cc(N3CCN(C(=O)C4CCCCC4)CC3)nc(C)n2)cc1 are TPP: inactive; PreQ1: inactive.
Calls for CC(C)(CO)N1CC1C(=O)OCc1ccccc1 (centres unmarked) are TPP: inactive; SAM-II: inactive; PreQ1: inactive.
Calls for Cc1c(NCc2ccccn2)cccc1C(=O)NC(C)Cc1ccsc1 (centres unmarked) are TPP: inactive; SAM-II: inactive; PreQ1: inactive.

Some entries from above, unchanged:

* CC(C)(CO)N1CC1C(=O)OCc1ccccc1 (centres unmarked) | TPP: inactive; SAM-II: inactive; PreQ1: inactive
* CN(C)c1nc(Cc2ccc(NC(=O)c3ccc4ccccc4c3)cc2)nc(Cl)c1CC(=O)O | TPP: inactive; SAM-II: inactive; PreQ1: inactive
* Nc1nc(N)nc(-c2ccccc2-c2nc(N)nc(N)n2)n1 | TPP: inactive; SAM-II: inactive; PreQ1: inactive

Data from the ROBIN nucleic acid binder screens, doi:10.1002/anie.202211358.